One test concerns the target FC-(Alk1)2 (UniProt P37023). The test can be described thus: SPR; BIAcore T-200; chimeric Fc-type 1 receptor coupled to a Series S Protein A chip; ligands 6.25-0.049 nM flowed at 50 uL/min, 300 s association, 1000 s dissociation; 20 mM HEPES pH 7.4, 350 mM NaCl, 0.005 % P-20, 0.5 mg/mL BSA, 3.4 mM EDTA; kinetic 1:1 fit (also a bivalent fit); apparent KD = kd/ka; average of N=2; both purified.

Chains of the proteins cited; added tags and fusions are not shown. Residues count along the entry.
UniProt P37023, residues 22-118: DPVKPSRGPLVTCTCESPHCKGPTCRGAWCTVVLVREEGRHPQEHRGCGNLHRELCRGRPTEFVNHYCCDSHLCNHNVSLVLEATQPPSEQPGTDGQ

In the next test the target is T1, FC-(Alk2)2 (UniProt Q04771).
T1 sequence: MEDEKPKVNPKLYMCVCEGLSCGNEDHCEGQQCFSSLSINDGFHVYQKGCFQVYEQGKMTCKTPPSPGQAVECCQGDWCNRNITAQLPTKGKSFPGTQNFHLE
The description is as above.

No constants are given. Whether binding was seen depends on the method and setting. Some results given as binding are weak or reduced against the parent protein; the word gives no strength. For some assays here: Where a sequence is shown, tags or fusion partners need not be part of it.

B1: BMP4 homodimer (ligand, UniProt P12644 293-408)
chain: MSPKHHSQRARKKNKNCRRHSLYVDFSDVGWNDWIVAPPGYQAFYCHGDCPFPLADHLNSTNHAIVQTLVNSVNSSIPKACCVPTELSAISMLYLDEYDKVVLKNYQEMVVEGCGCR
B1: the binding entry in the test with FC-(Alk1)2 and in the test with FC-(Alk2)2 was “binds weakly” each time.

Values taken from article PMC9893541.
